Measured values published in publication PMC11448500.
Results are given in words; binding and its absence hold for the method and conditions named. In cells and extracts the contact can be indirect. Binding calls can cover weak binding; strength is not graded here.

Target: T1, KDM2A (mouse (endogenous in c-KIT+ spermatogonia of mouse testes)) (UniProt P59997)
T1 sequence: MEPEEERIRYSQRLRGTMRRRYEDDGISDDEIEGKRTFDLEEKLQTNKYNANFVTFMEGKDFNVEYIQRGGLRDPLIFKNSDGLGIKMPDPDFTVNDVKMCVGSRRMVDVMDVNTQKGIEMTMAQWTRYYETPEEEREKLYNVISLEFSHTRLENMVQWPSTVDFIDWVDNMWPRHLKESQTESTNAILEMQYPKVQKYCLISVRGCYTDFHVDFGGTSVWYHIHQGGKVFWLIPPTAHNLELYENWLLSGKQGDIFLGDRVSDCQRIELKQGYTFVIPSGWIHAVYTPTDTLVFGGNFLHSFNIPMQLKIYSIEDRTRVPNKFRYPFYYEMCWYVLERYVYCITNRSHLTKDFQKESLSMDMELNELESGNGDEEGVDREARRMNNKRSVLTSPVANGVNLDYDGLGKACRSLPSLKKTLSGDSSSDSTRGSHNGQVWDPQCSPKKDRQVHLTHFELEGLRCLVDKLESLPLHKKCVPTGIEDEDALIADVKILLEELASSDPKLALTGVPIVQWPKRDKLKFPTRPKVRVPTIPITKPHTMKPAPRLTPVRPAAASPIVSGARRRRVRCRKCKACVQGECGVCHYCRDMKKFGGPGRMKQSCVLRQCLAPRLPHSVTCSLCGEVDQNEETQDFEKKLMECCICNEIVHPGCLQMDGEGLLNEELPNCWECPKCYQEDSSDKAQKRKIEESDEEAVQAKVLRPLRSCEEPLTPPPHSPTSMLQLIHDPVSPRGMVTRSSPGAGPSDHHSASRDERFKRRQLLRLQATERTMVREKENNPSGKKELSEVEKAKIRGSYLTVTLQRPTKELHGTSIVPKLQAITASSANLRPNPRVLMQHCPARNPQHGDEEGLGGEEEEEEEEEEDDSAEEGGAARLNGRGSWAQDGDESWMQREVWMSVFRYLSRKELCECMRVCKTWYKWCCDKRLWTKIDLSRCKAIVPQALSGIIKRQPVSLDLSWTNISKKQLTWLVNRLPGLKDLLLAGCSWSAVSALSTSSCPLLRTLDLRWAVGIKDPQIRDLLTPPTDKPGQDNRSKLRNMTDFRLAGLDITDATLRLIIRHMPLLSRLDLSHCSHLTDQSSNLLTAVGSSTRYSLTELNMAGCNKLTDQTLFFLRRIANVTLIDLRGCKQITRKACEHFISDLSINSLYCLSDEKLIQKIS
Experiment: co-IP; lysate of purified c-KIT+ spermatogonia, relevant antibodies and protein A/G magnetic beads overnight at 4 °C, with or without Super Nuclease, six washes, western blot; IgG as negative control

binding: binds
Substance: HCFC1
